Measurements taken from patent US20070148703A1, “Method of screening remedy for breast cancer” (Genomembrane, Inc., priority 2003, published 2007).

System: T-47D cells
Experiment: Uptake of estrone-3-sulfate by T-47D cells (time course, cation and concentration dependence)
Type: cell-based, human
Details: 7.1 nM
Description: Cultured T-47D cells were incubated at 37° C. over 35 min in medium containing [^3H] estrone-3-sulfate (7.1 nM) with (open circles) or without (closed circles) 1 mM unlabeled estrone-3-sulfate. Each value represents the mean±S.E.M. (n=4). When the error bars are not shown, they are smaller than the symbols.
The uptake rate of [^3H] estrone-3-sulfate (7.1 nM) for 10 min was measured in the presence or absence of extracellular Na^+. Extracellular Na^+ was replaced with K^+, Li^+, or N-methylglucamine^+ (NMG^+). Each value represents the mean±S.E.M. (n=4).
The uptake of estrone-3-sulfate at various concentrations, ranging from 5.1 nM to 50 μM, was measured at 37° C. for 10 min. […]
Transport experiments were performed as described previously (Tamai et al., 2001). […] Then, the associated radioactivity was measured by means of a liquid scintillation counter using Clearsol-1 (Nacalai tesque) as a liquid scintillation fluid.
Cellular protein content was determined according to the method of Bradford by using a BioRad protein assay kit (Hercules) with bovine serum albumin as the standard (Bradford, 1976). […] All data were expressed as means±S.E.M., and statistical analysis was performed by the use of Student's t test with P<0.05 as the criterion of significance. […]

C[C@]12CC[C@@H]3c4ccc(OS(=O)(=O)O)cc4CC[C@H]3[C@@H]1CCC2=O [Estrone-3-sulfate]
time course of [3H] estrone-3-sulfate uptake (37° C.): increased linearly over 20 min | [3H] estrone-3-sulfate uptake when Na+ replaced with K+, Li+ or N-methylglucamine+ (10 min): comparable to that in the presence of Na^+
